Reference: patent publication US5753617A (Centocor, Inc., priority 1995, dated 1998)
Strings that start with PEPTIDE1 are HELM notation: dots part the residues, brackets hold end groups and non-standard residues.

Assay: general procedure: Boc solid-phase peptide synthesis; 4-methyl benzhydrylamine resin
Conditions: whole synthesis, scale 0.5 mmol

Substance | crude mass [mg] | isolated mass [mg]
PEPTIDE1{C.R.G.G.C.W.T.W.V.[am]}$PEPTIDE1,PEPTIDE1,1:R3-5:R3$$$V2.0 | 830 | –
PEPTIDE1{R.K.I.K.G.I.W.E.W.V.[am]}$PEPTIDE1,PEPTIDE1,4:R3-8:R3$$$V2.0 | 633 | –
PEPTIDE1{K.C.G.G.C.W.T.W.V.[am]}$PEPTIDE1,PEPTIDE1,2:R3-5:R3$$$V2.0 | 810 | –
PEPTIDE1{[dR].[dK].[dC].G.F.[dC].[dW].[dT].[dW].[dV].[am]}$PEPTIDE1,PEPTIDE1,3:R3-6:R3$$$V2.0 | 948 | –
PEPTIDE1{R.K.C.G.G.C.W.T.W.V.[am]}$PEPTIDE1,PEPTIDE1,3:R3-6:R3$$$V2.0 | 1144 | –
PEPTIDE1{[dR].[dK].[dC].[dF].G.[dC].[dW].[dT].[dW].[dV].[am]}$PEPTIDE1,PEPTIDE1,3:R3-6:R3$$$V2.0 | 917 | –
PEPTIDE1{E.K.I.G.G.K.W.T.W.V.[am]}$PEPTIDE1,PEPTIDE1,1:R3-6:R3$$$V2.0 | 321 | –
PEPTIDE1{[dR].[dK].[dC].[Ava].[dC].[dW].[dT].[dW].[dV].[am]}$PEPTIDE1,PEPTIDE1,3:R3-5:R3$$$V2.0 | 796 | –
PEPTIDE1{[dR].[dK].[dC].[dA].F.[dC].[dW].[dT].[dW].[dV].[am]}$PEPTIDE1,PEPTIDE1,3:R3-6:R3$$$V2.0 | 601 | –
PEPTIDE1{R.C.I.G.G.C.W.T.W.V.[am]}$PEPTIDE1,PEPTIDE1,2:R3-6:R3$$$V2.0 | 885 | –
PEPTIDE1{R.K.I.E.G.I.W.K.W.V.[am]}$PEPTIDE1,PEPTIDE1,4:R3-8:R3$$$V2.0 | 829 | –
PEPTIDE1{[dR].[dK].[dI].G.[dC].[dI].[dW].[dC].[dW].[dV].[am]}$PEPTIDE1,PEPTIDE1,5:R3-8:R3$$$V2.0 | – | 15
PEPTIDE1{[dR].[dK].[dC].G.[dF].[dC].[dW].[dT].[dW].[dV].[am]}$PEPTIDE1,PEPTIDE1,3:R3-6:R3$$$V2.0 | 901 | –
PEPTIDE1{R.K.I.G.G.C.W.T.W.C.[am]}$PEPTIDE1,PEPTIDE1,6:R3-10:R3$$$V2.0 | 1111 | –
PEPTIDE1{K.K.I.G.G.E.W.T.W.V.[am]}$PEPTIDE1,PEPTIDE1,1:R3-6:R3$$$V2.0 | 530 | –
PEPTIDE1{[dK].[dC].G.G.[dC].[dW].[dT].[dW].[dV].[am]}$PEPTIDE1,PEPTIDE1,2:R3-5:R3$$$V2.0 | 582 | –
PEPTIDE1{C.G.G.C.W.T.W.V.[am]}$PEPTIDE1,PEPTIDE1,1:R3-4:R3$$$V2.0 | 535 | –
PEPTIDE1{R.K.[D-Pen].G.G.C.W.T.W.V.[am]}$PEPTIDE1,PEPTIDE1,3:R3-6:R3$$$V2.0 | 933 | –
PEPTIDE1{[dC].[dK].[dI].[dC].G.[dI].[dW].[dT].[dW].[dV].[am]}$PEPTIDE1,PEPTIDE1,1:R3-4:R3$$$V2.0 | 704 | –
PEPTIDE1{[dR].[dK].[dC].F.G.[dC].[dW].[dT].[dW].[dV].[am]}$PEPTIDE1,PEPTIDE1,3:R3-6:R3$$$V2.0 | 876 | –
PEPTIDE1{[dR].[dK].[dC].G.G.[dC].[dW].[dT].[dW].[am]}$PEPTIDE1,PEPTIDE1,3:R3-6:R3$$$V2.0 | 700 | –
PEPTIDE1{R.K.[D-Pen].G.G.[D-Pen].W.T.W.V.[am]}$PEPTIDE1,PEPTIDE1,3:R3-6:R3$$$V2.0 | 1148 | –
PEPTIDE1{R.K.[Dap].G.G.D.W.T.W.V.[am]}$PEPTIDE1,PEPTIDE1,3:R3-6:R3$$$V2.0 | 600 | –

Same assay, conditions: whole synthesis, scale 0.75 mmol

Substance | crude mass [mg] | isolated mass [mg]
PEPTIDE1{[dR].[dK].[dC].K.F.[dC].[dW].[dT].[dW].[dV].[am]}$PEPTIDE1,PEPTIDE1,3:R3-6:R3$$$V2.0 | 864 | 76
